This is an account of results in PMC12136191, “Structural basis for mTORC1 regulation by the CASTOR1-GATOR2 complex” (Research Square, 2025).

In the assay the target is T1, WDR59, subunit within purified GATOR2 (UniProt Q6PJI9).
T1 sequence: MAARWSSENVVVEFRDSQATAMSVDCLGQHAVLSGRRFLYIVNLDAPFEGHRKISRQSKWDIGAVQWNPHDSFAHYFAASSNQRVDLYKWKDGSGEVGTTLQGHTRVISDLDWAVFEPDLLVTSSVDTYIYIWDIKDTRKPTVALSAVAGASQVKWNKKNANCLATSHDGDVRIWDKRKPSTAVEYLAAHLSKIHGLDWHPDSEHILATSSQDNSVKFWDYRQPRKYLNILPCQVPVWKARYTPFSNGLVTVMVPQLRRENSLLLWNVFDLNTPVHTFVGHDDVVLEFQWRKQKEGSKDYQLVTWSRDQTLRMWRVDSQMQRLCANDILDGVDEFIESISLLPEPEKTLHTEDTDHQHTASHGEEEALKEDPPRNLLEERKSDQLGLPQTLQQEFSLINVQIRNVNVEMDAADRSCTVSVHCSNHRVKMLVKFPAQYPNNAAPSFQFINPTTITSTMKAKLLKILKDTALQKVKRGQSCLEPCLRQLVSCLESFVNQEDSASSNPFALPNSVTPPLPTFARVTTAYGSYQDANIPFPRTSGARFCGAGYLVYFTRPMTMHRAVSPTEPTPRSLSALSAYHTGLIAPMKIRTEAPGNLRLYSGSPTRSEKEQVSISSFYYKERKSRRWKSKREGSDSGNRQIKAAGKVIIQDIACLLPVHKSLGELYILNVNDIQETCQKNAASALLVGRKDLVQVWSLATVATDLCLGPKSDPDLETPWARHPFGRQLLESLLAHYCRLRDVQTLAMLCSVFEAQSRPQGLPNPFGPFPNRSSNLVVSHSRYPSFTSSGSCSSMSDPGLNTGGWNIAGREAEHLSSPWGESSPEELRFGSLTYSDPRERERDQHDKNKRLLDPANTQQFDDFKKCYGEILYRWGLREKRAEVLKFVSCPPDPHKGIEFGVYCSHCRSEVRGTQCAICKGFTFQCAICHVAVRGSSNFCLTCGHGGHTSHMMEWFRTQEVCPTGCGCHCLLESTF
Description: cryo-EM structure; purified GATOR2 at 0.45 mg/mL with 3-fold molar excess of CASTOR1^apo, 45 minutes on ice, frozen on grids; no Arg; Titan Krios; both purified.

These are yes or no findings as the source states them, for the method shown. Some binding calls cover weakened binding; strength is not graded here.

B1: MIOS, subunit within purified GATOR2 (natural protein)
chain: MSGTKPDILWAPHHVDRFVVCDSELSLYHVESTVNSELKAGSLRLSEDSAATLLSINSDTPYMKCVAWYLNYDPECLLAVGQANGRVVLTSLGQDHNSKFKDLIGKEFVPKHARQCNTLAWNPLDSNWLAAGLDKHRADFSVLIWDICSKYTPDIVPMEKVKLSAGETETTLLVTKPLYELGQNDACLSLCWLPRDQKLLLAGMHRNLAIFDLRNTSQKMFVNTKAVQGVTVDPYFHDRVASFYEGQVAIWDLRKFEKPVLTLTEQPKPLTKVAWCPTRTGLLATLTRDSNIIRLYDMQHTPTPIGDETEPTIIERSVQPCDNYIASFAWHPTSQNRMIVVTPNRTMSDFTVFERISLAWSPITSLMWACGRHLYECTEEENDNSLEKDIATKMRLRALSRYGLDTEQVWRNHILAGNEDPQLKSLWYTLHFMKQYTEDMDQKSPGNKGSLVYAGIKSIVKSSLGMVESSRHNWSGLDKQSDIQNLNEERILALQLCGWIKKGTDVDVGPFLNSLVQEGEWERAAAVALFNLDIRRAIQILNEGASSEKGDLNLNVVAMALSGYTDEKNSLWREMCSTLRLQLNNPYLCVMFAFLTSETGSYDGVLYENKVAVRDRVAFACKFLSDTQLNRYIEKLTNEMKEAGNLEGILLTGLTKDGVDLMESYVDRTGDVQTASYCMLQGSPLDVLKDERVQYWIENYRNLLDAWRFWHKRAEFDIHRSKLDPSSKPLAQVFVSCNFCGKSISYSCSAVPHQGRGFSQYGVSGSPTKSKVTSCPGCRKPLPRCALCLINMGTPVSSCPGGTKSDEKVDLSKDKKLAQFNNWFTWCHNCRHGGHAGHMLSWFRDHAECPVSACTCKCMQLDTTGNLVPAETVQP
notes: MIOS, subunit of GATOR2; codon optimized synthetic DNA; The MIOS chain of m1, written alone for the pairs that touch in the structure; also called front face MIOS; source: HEK293-GNTI cells, co-expressed with the other GATOR2 subunits, purified as part of GATOR2
Turning to B1, the binding entry is listed as “binds”.
